Measurements published in the supplement of paper PMC10849652.
This is one part of the list.

By UniProt entry, the sequences of proteins in these tests, tags left out. Where a name states a change or a piece, a line headed by the entry shows the natural chain unless it says otherwise.
UniProt O95295: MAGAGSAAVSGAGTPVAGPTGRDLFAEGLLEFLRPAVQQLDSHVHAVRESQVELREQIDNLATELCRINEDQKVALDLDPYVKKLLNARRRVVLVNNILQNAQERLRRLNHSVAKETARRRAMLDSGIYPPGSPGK
UniProt Q12824, whole entry, looked up: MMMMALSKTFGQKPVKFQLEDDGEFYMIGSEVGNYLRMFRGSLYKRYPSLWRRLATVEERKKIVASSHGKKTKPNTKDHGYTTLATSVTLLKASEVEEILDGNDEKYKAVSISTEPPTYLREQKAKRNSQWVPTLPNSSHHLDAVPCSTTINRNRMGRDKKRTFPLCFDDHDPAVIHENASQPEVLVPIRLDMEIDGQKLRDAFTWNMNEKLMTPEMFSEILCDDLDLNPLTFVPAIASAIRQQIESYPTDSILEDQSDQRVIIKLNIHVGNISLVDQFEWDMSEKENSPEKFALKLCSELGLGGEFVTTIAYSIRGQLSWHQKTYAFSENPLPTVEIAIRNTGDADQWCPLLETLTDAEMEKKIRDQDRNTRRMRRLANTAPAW
UniProt P62306, whole entry, looked up: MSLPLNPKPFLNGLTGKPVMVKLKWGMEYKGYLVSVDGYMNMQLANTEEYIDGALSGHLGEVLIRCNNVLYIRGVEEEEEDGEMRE
UniProt O75391: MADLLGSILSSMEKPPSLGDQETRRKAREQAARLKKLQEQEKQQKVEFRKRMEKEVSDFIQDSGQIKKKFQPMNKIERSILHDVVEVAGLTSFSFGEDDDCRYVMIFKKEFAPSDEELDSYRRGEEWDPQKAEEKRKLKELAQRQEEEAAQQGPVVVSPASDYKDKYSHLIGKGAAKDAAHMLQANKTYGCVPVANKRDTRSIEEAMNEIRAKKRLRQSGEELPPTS
UniProt O60271: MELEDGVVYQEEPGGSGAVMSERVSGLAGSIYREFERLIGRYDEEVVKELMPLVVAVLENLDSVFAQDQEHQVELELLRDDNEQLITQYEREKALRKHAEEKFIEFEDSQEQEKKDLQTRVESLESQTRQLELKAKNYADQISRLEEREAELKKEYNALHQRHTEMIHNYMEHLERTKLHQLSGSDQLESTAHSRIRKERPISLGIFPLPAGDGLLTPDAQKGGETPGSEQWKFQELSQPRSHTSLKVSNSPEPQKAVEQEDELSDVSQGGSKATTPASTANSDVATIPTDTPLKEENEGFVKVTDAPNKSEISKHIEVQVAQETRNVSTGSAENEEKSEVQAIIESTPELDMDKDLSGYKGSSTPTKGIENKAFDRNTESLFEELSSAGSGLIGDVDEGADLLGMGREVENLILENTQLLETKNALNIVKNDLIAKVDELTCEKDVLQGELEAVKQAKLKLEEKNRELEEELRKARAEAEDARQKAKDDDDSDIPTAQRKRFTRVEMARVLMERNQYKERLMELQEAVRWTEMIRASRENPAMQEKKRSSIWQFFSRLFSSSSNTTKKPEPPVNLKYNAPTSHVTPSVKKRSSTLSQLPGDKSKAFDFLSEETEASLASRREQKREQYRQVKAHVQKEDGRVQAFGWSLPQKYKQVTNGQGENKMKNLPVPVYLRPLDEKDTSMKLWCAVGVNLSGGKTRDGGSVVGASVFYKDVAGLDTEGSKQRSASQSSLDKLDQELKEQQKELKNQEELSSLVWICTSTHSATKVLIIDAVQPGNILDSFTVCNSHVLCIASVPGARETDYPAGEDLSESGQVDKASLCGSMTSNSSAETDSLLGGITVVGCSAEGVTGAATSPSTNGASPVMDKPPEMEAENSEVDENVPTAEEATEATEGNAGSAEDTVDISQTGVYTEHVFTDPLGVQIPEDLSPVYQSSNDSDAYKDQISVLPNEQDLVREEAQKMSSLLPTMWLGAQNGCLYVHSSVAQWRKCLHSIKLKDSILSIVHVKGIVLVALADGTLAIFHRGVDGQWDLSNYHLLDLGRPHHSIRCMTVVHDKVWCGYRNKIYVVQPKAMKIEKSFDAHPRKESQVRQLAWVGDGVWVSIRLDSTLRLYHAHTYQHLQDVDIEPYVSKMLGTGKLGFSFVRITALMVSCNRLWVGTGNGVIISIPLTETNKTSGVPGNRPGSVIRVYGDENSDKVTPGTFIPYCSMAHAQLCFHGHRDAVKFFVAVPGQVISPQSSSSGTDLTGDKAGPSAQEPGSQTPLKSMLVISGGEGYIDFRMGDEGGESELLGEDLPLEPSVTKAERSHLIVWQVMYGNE
UniProt Q9NRH2: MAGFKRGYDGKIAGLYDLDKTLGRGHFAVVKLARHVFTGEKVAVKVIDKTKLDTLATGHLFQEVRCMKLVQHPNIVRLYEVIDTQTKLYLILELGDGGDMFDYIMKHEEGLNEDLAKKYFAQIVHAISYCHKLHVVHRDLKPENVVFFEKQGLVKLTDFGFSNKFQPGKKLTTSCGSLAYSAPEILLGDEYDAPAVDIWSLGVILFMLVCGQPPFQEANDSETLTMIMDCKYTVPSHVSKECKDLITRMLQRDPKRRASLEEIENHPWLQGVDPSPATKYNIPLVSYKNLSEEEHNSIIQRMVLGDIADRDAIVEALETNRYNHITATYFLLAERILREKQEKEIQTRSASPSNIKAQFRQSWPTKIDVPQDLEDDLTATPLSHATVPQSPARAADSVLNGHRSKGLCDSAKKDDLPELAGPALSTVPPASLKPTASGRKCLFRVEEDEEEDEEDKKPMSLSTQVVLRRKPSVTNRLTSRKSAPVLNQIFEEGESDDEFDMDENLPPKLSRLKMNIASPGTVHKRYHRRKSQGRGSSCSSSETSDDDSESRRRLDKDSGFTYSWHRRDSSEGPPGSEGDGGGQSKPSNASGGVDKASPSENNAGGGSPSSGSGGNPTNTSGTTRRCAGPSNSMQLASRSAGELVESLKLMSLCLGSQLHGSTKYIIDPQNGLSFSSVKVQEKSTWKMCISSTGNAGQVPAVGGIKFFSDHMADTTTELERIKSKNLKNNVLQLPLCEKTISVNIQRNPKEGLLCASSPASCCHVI
UniProt P62316, whole entry, looked up: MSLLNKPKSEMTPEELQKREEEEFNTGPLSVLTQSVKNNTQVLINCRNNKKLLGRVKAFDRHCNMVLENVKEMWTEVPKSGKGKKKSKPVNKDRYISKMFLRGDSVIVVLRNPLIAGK
UniProt Q9Y5W9: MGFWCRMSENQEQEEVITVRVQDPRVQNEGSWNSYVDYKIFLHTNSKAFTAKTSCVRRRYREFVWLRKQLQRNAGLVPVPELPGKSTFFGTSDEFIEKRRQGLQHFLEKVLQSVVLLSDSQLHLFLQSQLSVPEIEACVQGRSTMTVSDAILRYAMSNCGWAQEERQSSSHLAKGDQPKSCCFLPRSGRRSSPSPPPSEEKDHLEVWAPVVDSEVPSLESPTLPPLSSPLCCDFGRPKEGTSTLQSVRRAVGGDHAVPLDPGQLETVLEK
UniProt P62314, whole entry, looked up: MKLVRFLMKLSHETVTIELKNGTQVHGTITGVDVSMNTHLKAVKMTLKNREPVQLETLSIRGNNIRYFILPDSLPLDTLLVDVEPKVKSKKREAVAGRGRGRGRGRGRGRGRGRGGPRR
UniProt Q99523, whole entry, looked up: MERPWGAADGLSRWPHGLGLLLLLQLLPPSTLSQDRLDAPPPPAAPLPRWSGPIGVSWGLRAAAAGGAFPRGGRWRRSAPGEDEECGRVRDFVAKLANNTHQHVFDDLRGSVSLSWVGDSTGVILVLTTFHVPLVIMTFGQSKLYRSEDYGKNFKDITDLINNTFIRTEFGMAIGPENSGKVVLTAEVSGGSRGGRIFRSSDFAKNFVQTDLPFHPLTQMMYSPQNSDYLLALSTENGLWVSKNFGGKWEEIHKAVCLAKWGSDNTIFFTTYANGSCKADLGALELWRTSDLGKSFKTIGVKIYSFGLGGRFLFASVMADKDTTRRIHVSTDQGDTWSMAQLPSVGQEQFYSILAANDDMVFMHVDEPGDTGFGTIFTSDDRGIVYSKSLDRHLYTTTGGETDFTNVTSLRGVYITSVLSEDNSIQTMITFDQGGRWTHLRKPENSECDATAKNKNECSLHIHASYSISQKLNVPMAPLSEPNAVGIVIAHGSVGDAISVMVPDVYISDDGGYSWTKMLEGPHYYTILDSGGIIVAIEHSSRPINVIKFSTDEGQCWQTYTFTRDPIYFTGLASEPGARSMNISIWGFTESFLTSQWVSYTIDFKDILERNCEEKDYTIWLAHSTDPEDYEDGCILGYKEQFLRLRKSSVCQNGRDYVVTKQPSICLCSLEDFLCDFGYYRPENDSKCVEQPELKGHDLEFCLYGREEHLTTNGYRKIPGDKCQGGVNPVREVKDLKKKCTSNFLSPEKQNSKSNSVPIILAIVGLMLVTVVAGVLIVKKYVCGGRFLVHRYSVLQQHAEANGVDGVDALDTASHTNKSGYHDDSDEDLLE
UniProt O60641: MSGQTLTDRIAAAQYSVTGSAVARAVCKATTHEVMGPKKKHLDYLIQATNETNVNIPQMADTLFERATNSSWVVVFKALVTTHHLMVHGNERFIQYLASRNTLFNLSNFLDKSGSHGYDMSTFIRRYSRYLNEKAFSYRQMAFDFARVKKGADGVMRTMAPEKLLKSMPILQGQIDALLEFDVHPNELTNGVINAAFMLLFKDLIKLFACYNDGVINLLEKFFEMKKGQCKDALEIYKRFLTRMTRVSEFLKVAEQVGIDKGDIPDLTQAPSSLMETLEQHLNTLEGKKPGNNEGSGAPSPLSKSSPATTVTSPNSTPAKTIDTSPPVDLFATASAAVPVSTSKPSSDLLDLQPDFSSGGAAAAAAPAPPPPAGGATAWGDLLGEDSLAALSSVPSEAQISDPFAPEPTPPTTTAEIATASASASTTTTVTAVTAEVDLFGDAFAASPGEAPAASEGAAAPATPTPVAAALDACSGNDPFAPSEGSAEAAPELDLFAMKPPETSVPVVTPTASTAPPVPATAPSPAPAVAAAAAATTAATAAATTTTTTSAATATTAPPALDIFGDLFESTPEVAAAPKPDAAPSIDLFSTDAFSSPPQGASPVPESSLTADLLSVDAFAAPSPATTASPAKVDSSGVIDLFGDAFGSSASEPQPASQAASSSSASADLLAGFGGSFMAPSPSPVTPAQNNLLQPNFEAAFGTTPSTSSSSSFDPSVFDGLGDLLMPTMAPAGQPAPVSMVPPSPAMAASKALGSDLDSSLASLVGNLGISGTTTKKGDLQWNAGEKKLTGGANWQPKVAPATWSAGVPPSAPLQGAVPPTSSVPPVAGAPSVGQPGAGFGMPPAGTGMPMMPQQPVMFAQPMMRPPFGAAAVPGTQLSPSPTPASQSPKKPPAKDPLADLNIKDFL
UniProt P09234, whole entry, looked up: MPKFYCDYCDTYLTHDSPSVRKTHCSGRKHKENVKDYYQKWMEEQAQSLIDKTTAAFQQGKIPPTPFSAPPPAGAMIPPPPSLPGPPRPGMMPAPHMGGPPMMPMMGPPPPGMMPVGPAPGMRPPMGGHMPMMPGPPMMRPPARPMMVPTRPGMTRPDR
UniProt Q9UQE7: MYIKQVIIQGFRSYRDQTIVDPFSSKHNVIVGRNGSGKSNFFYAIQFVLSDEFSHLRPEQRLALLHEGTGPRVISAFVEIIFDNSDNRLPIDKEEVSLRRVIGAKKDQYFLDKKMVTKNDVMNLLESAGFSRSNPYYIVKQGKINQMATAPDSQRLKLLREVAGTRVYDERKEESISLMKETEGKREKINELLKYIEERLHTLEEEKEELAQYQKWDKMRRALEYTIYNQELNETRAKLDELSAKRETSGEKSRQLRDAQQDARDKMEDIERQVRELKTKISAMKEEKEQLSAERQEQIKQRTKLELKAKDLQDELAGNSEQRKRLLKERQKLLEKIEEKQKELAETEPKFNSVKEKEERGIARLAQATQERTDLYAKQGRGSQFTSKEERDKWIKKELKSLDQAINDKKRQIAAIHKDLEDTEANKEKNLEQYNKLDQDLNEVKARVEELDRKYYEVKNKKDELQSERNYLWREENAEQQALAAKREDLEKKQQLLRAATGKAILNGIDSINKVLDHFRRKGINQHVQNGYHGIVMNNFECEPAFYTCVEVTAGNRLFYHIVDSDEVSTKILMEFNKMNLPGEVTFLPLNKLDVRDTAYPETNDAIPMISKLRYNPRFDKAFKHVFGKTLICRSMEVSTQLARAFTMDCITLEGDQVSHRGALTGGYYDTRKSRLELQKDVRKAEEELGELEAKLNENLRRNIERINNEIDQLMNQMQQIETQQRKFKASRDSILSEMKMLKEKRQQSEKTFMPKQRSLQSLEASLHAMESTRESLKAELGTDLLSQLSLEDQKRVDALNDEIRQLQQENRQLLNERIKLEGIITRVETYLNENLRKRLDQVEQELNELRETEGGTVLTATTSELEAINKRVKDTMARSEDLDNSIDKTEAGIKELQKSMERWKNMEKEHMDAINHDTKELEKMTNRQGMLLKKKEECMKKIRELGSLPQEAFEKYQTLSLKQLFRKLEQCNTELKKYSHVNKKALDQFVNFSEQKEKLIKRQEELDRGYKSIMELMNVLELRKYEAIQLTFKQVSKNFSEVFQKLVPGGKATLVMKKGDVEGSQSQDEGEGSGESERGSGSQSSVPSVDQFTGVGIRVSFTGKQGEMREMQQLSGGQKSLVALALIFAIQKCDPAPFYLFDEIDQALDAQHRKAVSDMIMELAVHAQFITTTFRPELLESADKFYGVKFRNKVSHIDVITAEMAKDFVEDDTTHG

Experiments:
Assay in all cases: log2 fold change, soluble protein after heating vs DMSO (PISA); higher = thermal stabilisation; K562 lysate, 10 uM; active = over 0.2 and 3.5 SD of the protein, either way, in both replicates (recomputed)
lapatinib = compound: CS(=O)(=O)CCNCc1ccc(-c2ccc3ncnc(Nc4ccc(OCc5cccc(F)c5)c(Cl)c4)c3c2)o1 [lapatinib]
In short: (§1)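 A 30 min treatment with 10 μM compound was applied to crude K562 extract at 1 mg/mL protein in PBS pH 7.4 with 1 mM MgCl2. Heating for 3 min spanned 48°C-58°C, after which aliquots were pooled, adjusted to 0.5% NP-40 at 4°C and spun at 21,000xg for 90 min. TMTpro 16plex LC-MS/MS of the supernatant, with channel sums equalised, gave values recorded as log-two fold change in thermal stability against solvent controls, from duplicates.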

pictilisib = compound: CS(=O)(=O)N1CCN(Cc2cc3nc(-c4cccc5[nH]ncc45)nc(N4CCOCC4)c3s2)CC1 [pictilisib]
In short: as §1

crizotinib = compound: C[C@@H](Oc1cc(-c2cnn(C3CCNCC3)c2)cnc1N)c1c(Cl)ccc(F)c1Cl [crizotinib]
In short: as §1

[1] = compound: C[C@H](C1=CC=C(C=C1)C(=O)NC2=C3C=CNC3=NC=C2)N
In short: as §1

duvelisib = compound: C[C@H](Nc1ncnc2nc[nH]c12)c1cc2cccc(Cl)c2c(=O)n1-c1ccccc1 [duvelisib]
In short: as §1

gandotinib = compound: Cc1cc(Nc2cc(CN3CCOCC3)c3nc(C)c(Cc4ccc(Cl)cc4F)n3n2)n[nH]1 [gandotinib]
In short: as §1

tozasertib = compound: Cc1cc(Nc2cc(N3CCN(C)CC3)nc(Sc3ccc(NC(=O)C4CC4)cc3)n2)n[nH]1 [tozasertib]
In short: as §1

doramapimod = compound: Cc1ccc(-n2nc(C(C)(C)C)cc2NC(=O)Nc2ccc(OCCN3CCOCC3)c3ccccc23)cc1 [doramapimod]
In short: as §1

bafetinib = compound: Cc1ccc(NC(=O)c2ccc(CN3CC[C@H](N(C)C)C3)c(C(F)(F)F)c2)cc1Nc1nccc(-c2cncnc2)n1 [bafetinib]
In short: as §1

[2] = compound: Cc1cccc(CC(=O)N2CCc3c2ccc(-c2cn(C)c4ncnc(N)c24)c3F)n1
In short: as §1

nilotinib = compound: Cc1cn(-c2cc(NC(=O)c3ccc(C)c(Nc4nccc(-c5cccnc5)n4)c3)cc(C(F)(F)F)c2)cn1 [nilotinib]
In short: as §1

[3] = compound: Cc1nc(Nc2n[nH]c3c2CN(C(=O)N[C@H](CN(C)C)c2ccccc2)C3(C)C)c2sccc2n1
In short: as §1

dasatinib = compound: Cc1nc(Nc2ncc(C(=O)Nc3c(C)cccc3Cl)s2)cc(N2CCN(CCO)CC2)n1 [dasatinib]
In short: as §1

[4] = compound: Cc1ncc(-c2ccnc(Nc3ccc(S(C)(=O)=O)cc3)n2)n1C(C)C
In short: as §1

[5] = compound: Cn1cc(-c2ccc3c(c2)CCN3C(=O)Cc2cccc(C(F)(F)F)c2)c2c(N)ncnc21
In short: as §1

quisinostat = compound: Cn1cc(CNCC2CCN(c3ncc(C(=O)NO)cn3)CC2)c2ccccc21 [quisinostat]
In short: as §1

tipifarnib = compound: Cn1cncc1[C@@](N)(c1ccc(Cl)cc1)c1ccc2c(c1)c(-c1cccc(Cl)c1)cc(=O)n2C [tipifarnib]
In short: as §1

[6] = compound: NC(=O)Nc1cc(-c2cccc(F)c2)sc1C(=O)N[C@H]1CCCNC1
In short: as §1

[7] = compound: NC(=O)c1cnc(N[C@@H]2CCCC[C@@H]2N)nc1Nc1cccc(-n2nccn2)c1
In short: as §1

[8] = compound: NC1(c2ccc(-c3nc4ccn5c(=O)[nH]nc5c4cc3-c3ccccc3)cc2)CCC1
In short: as §1

Measured: log2 fold change

SMARCAD1 isoform 2 (UniProt Q9H4L7)
inactive: lapatinib -0.005 | pictilisib -0.015 | crizotinib -0.073 | [1] -0.019 | duvelisib -0.013 | gandotinib -0.044 | tozasertib 0.018 | doramapimod 0.003 | bafetinib -0.045 | [2] 0.008 | nilotinib -0.001 | [3] -0.008 | dasatinib -0.033 | [4] -0.005 | [5] -0.005 | quisinostat -0.054 | tipifarnib -0.025 | [6] 0.016 | [7] 0.059 | [8] -0.007

SNAPIN (UniProt O95295)
inactive: lapatinib -0.014 | pictilisib -0.102 | crizotinib -0.024 | [1] -0.053 | duvelisib 0.007 | gandotinib 0.025 | tozasertib 0.034 | doramapimod 0.067 | bafetinib -0.088 | [2] 0.023 | nilotinib -0.013 | [3] 0.001 | dasatinib 0.052 | [4] 0.011 | [5] -0.039 | quisinostat -0.017 | tipifarnib -0.033 | [6] -0.031 | [7] 0.032 | [8] -0.003

SMARCB1 (UniProt Q12824)
inactive: lapatinib -0.057 | pictilisib -0.008 | crizotinib -0.017 | [1] -0.034 | duvelisib 0.013 | gandotinib -0.027 | tozasertib -0.046 | doramapimod 0.028 | bafetinib -0.112 | [2] -0.038 | nilotinib -0.014 | [3] 0.003 | dasatinib 0.019 | [4] 0.007 | [5] 0.033 | quisinostat -0.053 | tipifarnib 0.026 | [6] 0.04 | [7] -0.003 | [8] 0.01

SNRPF (UniProt P62306)
inactive: lapatinib 0.021 | pictilisib -0.029 | crizotinib -0.077 | [1] -0.237 | duvelisib 0.076 | gandotinib 0.21 | tozasertib -0.016 | doramapimod 0.026 | bafetinib 0.05 | [2] 0.218 | nilotinib -0.044 | [3] 0.063 | dasatinib 0.005 | [4] 0.013 | [5] -0.156 | quisinostat -0.276 | tipifarnib -0.037 | [6] 0 | [7] -0.044 | [8] 0.013

SNX27 (UniProt Q96L92)
inactive: lapatinib 0.01 | pictilisib -0.032 | crizotinib -0.026 | [1] 0.019 | duvelisib -0.012 | gandotinib -0.128 | tozasertib 0.044 | doramapimod 0.027 | bafetinib -0.042 | [2] 0.027 | nilotinib -0.016 | [3] -0.019 | dasatinib -0.003 | [4] -0.004 | [5] 0.004 | quisinostat -0.027 | tipifarnib 0.023 | [6] 0.033 | [7] 0.018 | [8] -0.031

SPAG7 (UniProt O75391)
inactive: lapatinib 0.014 | pictilisib -0.027 | crizotinib 0.03 | [1] -0.082 | duvelisib 0.014 | gandotinib 0.055 | tozasertib 0.001 | doramapimod -0.006 | bafetinib 0.015 | [2] 0.033 | nilotinib -0.026 | [3] 0.011 | dasatinib 0.022 | [4] 0.027 | [5] 0 | quisinostat -0.01 | tipifarnib 0.049 | [6] -0.024 | [7] 0.01 | [8] -0.032

SPAG9 (UniProt O60271)
inactive: lapatinib 0.003 | pictilisib 0.008 | crizotinib 0.006 | [1] -0.034 | duvelisib 0.004 | gandotinib 0.05 | tozasertib 0.009 | doramapimod -0.006 | bafetinib 0.009 | [2] 0.023 | nilotinib 0.002 | [3] 0 | dasatinib 0.027 | [4] -0.009 | [5] -0.014 | quisinostat -0.002 | tipifarnib -0.001 | [6] -0.002 | [7] 0.001 | [8] -0.001

SNRPB isoform 3 (UniProt P14678)
inactive: lapatinib -0.013 | pictilisib -0.065 | crizotinib 0.056 | [1] -0.041 | duvelisib 0.019 | gandotinib 0.124 | tozasertib -0.068 | doramapimod -0.05 | bafetinib 0.11 | [2] 0.044 | nilotinib 0.065 | [3] -0.042 | dasatinib 0.031 | [4] -0.035 | [5] -0.023 | quisinostat 0.095 | tipifarnib 0.043 | [6] -0.035 | [7] -0.052 | [8] 0.034

SNRK (UniProt Q9NRH2)
inactive: lapatinib -0.04 | pictilisib 0.046 | crizotinib 0 | [1] -0.004 | duvelisib -0.099 | gandotinib -0.047 | tozasertib 0.031 | doramapimod 0.011 | bafetinib -0.005 | [2] 0.108 | nilotinib -0.137 | [3] 0.151 | dasatinib -0.279 | [4] -0.116 | [5] 0.088 | quisinostat -0.147 | tipifarnib -0.094 | [6] 0.194 | [7] -0.054 | [8] 0.152

SNRPD2 (UniProt P62316)
inactive: lapatinib 0.017 | pictilisib -0.01 | crizotinib 0.016 | [1] -0.055 | duvelisib 0.018 | gandotinib 0.057 | tozasertib -0.014 | doramapimod -0.009 | bafetinib 0.078 | [2] 0.052 | nilotinib 0.014 | [3] 0.015 | dasatinib 0.024 | [4] 0.015 | [5] -0.02 | quisinostat 0.007 | tipifarnib 0.014 | [6] -0.027 | [7] 0 | [8] -0.002

SNX11 (UniProt Q9Y5W9)
inactive: lapatinib -0.002 | pictilisib -0.021 | crizotinib -0.025 | [1] -0.064 | duvelisib 0.014 | gandotinib 0.007 | tozasertib -0.024 | doramapimod 0.004 | bafetinib -0.019 | [2] -0.01 | nilotinib -0.013 | [3] -0.055 | dasatinib 0.005 | [4] -0.062 | [5] 0.001 | quisinostat -0.02 | tipifarnib 0.018 | [6] 0.051 | [7] 0.005 | [8] 0.017

SNRPD1 (UniProt P62314)
inactive: lapatinib -0.037 | pictilisib -0.055 | crizotinib -0.014 | [1] 0.005 | duvelisib 0.009 | gandotinib 0.027 | tozasertib 0.004 | doramapimod -0.037 | bafetinib -0.026 | [2] -0.018 | nilotinib 0.013 | [3] -0.015 | dasatinib -0.045 | [4] -0.014 | [5] -0.065 | quisinostat -0.025 | tipifarnib -0.009 | [6] 0.026 | [7] -0.083 | [8] 0.001

SORT1 (UniProt Q99523)
inactive: lapatinib -0.006 | pictilisib -0.02 | crizotinib -0.003 | [1] -0.016 | duvelisib 0.036 | gandotinib 0.034 | tozasertib 0.002 | doramapimod -0.028 | bafetinib 0.001 | [2] 0.014 | nilotinib -0.012 | [3] 0.019 | dasatinib 0.033 | [4] -0.057 | [5] 0.005 | quisinostat -0.026 | tipifarnib -0.021 | [6] 0.004 | [7] 0.016 | [8] 0.024

SNAP91 (UniProt O60641)
inactive: lapatinib 0.064 | pictilisib -0.002 | crizotinib 0.011 | [1] -0.011 | duvelisib -0.001 | gandotinib 0.013 | tozasertib 0.013 | doramapimod 0.123 | bafetinib -0.023 | [2] 0.053 | nilotinib -0.036 | [3] 0.002 | dasatinib 0.011 | [4] -0.052 | [5] 0.056 | quisinostat 0.011 | tipifarnib -0.081 | [6] -0.045 | [7] 0.114 | [8] 0.013

SNRPC (UniProt P09234)
inactive: lapatinib 0.029 | pictilisib -0.039 | crizotinib 0 | [1] 0.001 | duvelisib 0.013 | gandotinib 0.025 | tozasertib -0.001 | doramapimod 0.038 | bafetinib 0.03 | [2] 0.015 | nilotinib -0.012 | [3] 0.043 | dasatinib 0.007 | [4] 0.022 | [5] 0.023 | quisinostat -0.028 | tipifarnib 0.024 | [6] 0.041 | [7] 0.012 | [8] 0.029

2 successive entries from above:
SNRK (UniProt Q9NRH2)
inactive: lapatinib -0.04 | pictilisib 0.046 | crizotinib 0 | [1] -0.004 | duvelisib -0.099 | gandotinib -0.047 | tozasertib 0.031 | doramapimod 0.011 | bafetinib -0.005 | [2] 0.108 | nilotinib -0.137 | [3] 0.151 | dasatinib -0.279 | [4] -0.116 | [5] 0.088 | quisinostat -0.147 | tipifarnib -0.094 | [6] 0.194 | [7] -0.054 | [8] 0.152

SNRPD2 (UniProt P62316)
inactive: lapatinib 0.017 | pictilisib -0.01 | crizotinib 0.016 | [1] -0.055 | duvelisib 0.018 | gandotinib 0.057 | tozasertib -0.014 | doramapimod -0.009 | bafetinib 0.078 | [2] 0.052 | nilotinib 0.014 | [3] 0.015 | dasatinib 0.024 | [4] 0.015 | [5] -0.02 | quisinostat 0.007 | tipifarnib 0.014 | [6] -0.027 | [7] 0 | [8] -0.002

Next part:

SMC3 (UniProt Q9UQE7)
inactive: lapatinib 0.007 | pictilisib 0.006 | crizotinib 0.011 | [1] 0.037 | duvelisib -0.01 | gandotinib -0.013 | tozasertib 0.001 | doramapimod -0.007 | bafetinib -0.021 | [2] -0.012 | nilotinib 0 | [3] -0.01 | dasatinib 0.024 | [4] 0.013 | [5] 0.024 | quisinostat 0.023 | tipifarnib 0.002 | [6] 0 | [7] -0.003 | [8] 0.016
